Data as given in PubChem BioAssay AID1224830 (NIAID, 2016)

Test: 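Genes whose knock-down alters the TNF-alpha reporter response to LPS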 (primary screen)
Cells: human THP-1 monocytic leukaemia cells, TNF dual-luciferase reporter clone, PMA-differentiated to macrophage-like cells
Knock-down reagent: siRNA pool against human genes, 50 nM
Time to read-out: LPS for 4 h, given about 3 days after siRNA transfection
Treatment: bacterial LPS (TLR4 ligand), 10 ng/ml
Detection: 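TNF firefly reporter luminescence divided by renilla, normalised to the plate median, then turned into a robust z-score for each replicate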
Direction: TNF reporter robust z-score: higher = stronger TNF reporter response to LPS
Hit rule: 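a well is active when its z-score exceeds 2.8 or falls below -1.5; control wells carry no call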
This is one part, drawn at random, of about 18,000 deposited reagents. Over the whole deposit, about 2,900 (16%) were called active. 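Calls are made per well; low scores hint the gene aids the LPS response, high scores that it dampens it.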 Repeated entries: four replicate wells of each siRNA pool. No sequences are given here.

no.	Target gene	TNF reporter robust z-score	Call
1	RAX (retina and anterior neural fold homeobox)	0.4	inactive
2	RAX (retina and anterior neural fold homeobox)	0.25	inactive
3	RAX (retina and anterior neural fold homeobox)	1.04	inactive
4	RAX (retina and anterior neural fold homeobox)	-0.58	inactive
5	DGCR6L (DiGeorge syndrome critical region gene 6 like)	-0.51	inactive
6	DGCR6L (DiGeorge syndrome critical region gene 6 like)	-0.02	inactive
7	DGCR6L (DiGeorge syndrome critical region gene 6 like)	1.06	inactive
8	DGCR6L (DiGeorge syndrome critical region gene 6 like)	-0.38	inactive
9	WNT7B (Wnt family member 7B)	-0.64	inactive
10	WNT7B (Wnt family member 7B)	0.47	inactive
11	WNT7B (Wnt family member 7B)	0	inactive
12	WNT7B (Wnt family member 7B)	0.07	inactive
13	POFUT4 (protein O-fucosyltransferase 4)	-0.68	inactive
14	POFUT4 (protein O-fucosyltransferase 4)	-0.54	inactive
15	POFUT4 (protein O-fucosyltransferase 4)	0.19	inactive
16	POFUT4 (protein O-fucosyltransferase 4)	-0.51	inactive
17	RIC3 (RIC3 acetylcholine receptor chaperone)	-0.91	inactive
18	RIC3 (RIC3 acetylcholine receptor chaperone)	-0.66	inactive
19	RIC3 (RIC3 acetylcholine receptor chaperone)	-1.42	inactive
20	RIC3 (RIC3 acetylcholine receptor chaperone)	-0.14	inactive
21	H2AZ2 (H2A.Z variant histone 2)	0.08	inactive
22	H2AZ2 (H2A.Z variant histone 2)	0.86	inactive
23	H2AZ2 (H2A.Z variant histone 2)	-0.13	inactive
24	H2AZ2 (H2A.Z variant histone 2)	0.98	inactive
25	TES (testin LIM domain protein)	0.18	inactive
26	TES (testin LIM domain protein)	0.52	inactive
27	TES (testin LIM domain protein)	0.2	inactive
28	TES (testin LIM domain protein)	0.98	inactive
29	PRKAA2 (protein kinase AMP-activated catalytic subunit alpha 2)	0.79	inactive
30	PRKAA2 (protein kinase AMP-activated catalytic subunit alpha 2)	0.63	inactive
31	PRKAA2 (protein kinase AMP-activated catalytic subunit alpha 2)	0.01	inactive
32	PRKAA2 (protein kinase AMP-activated catalytic subunit alpha 2)	1.36	inactive
33	MALSU1 (mitochondrial assembly of ribosomal large subunit 1)	-0.53	inactive
34	MALSU1 (mitochondrial assembly of ribosomal large subunit 1)	-0.67	inactive
35	MALSU1 (mitochondrial assembly of ribosomal large subunit 1)	-0.61	inactive
36	MALSU1 (mitochondrial assembly of ribosomal large subunit 1)	0.25	inactive
37	BCO1 (beta-carotene oxygenase 1)	0.17	inactive
38	BCO1 (beta-carotene oxygenase 1)	1.09	inactive
39	BCO1 (beta-carotene oxygenase 1)	0.77	inactive
40	BCO1 (beta-carotene oxygenase 1)	0.82	inactive
41	GOLGA2 (golgin A2)	0.47	inactive
42	GOLGA2 (golgin A2)	1.36	inactive
43	GOLGA2 (golgin A2)	0.01	inactive
44	GOLGA2 (golgin A2)	2.55	inactive
45	TUBGCP2 (tubulin gamma complex component 2)	-0.82	inactive
46	TUBGCP2 (tubulin gamma complex component 2)	-0.08	inactive
47	TUBGCP2 (tubulin gamma complex component 2)	-0.53	inactive
48	TUBGCP2 (tubulin gamma complex component 2)	0.41	inactive
49	TIMP3 (TIMP metallopeptidase inhibitor 3)	-0.19	inactive
50	TIMP3 (TIMP metallopeptidase inhibitor 3)	0.66	inactive
51	TIMP3 (TIMP metallopeptidase inhibitor 3)	0.32	inactive
52	TIMP3 (TIMP metallopeptidase inhibitor 3)	0.04	inactive
53	TUFT1 (tuftelin 1)	0.37	inactive
54	TUFT1 (tuftelin 1)	0.51	inactive
55	TUFT1 (tuftelin 1)	0.63	inactive
56	TUFT1 (tuftelin 1)	-0.6	inactive
57	VMP1 (vacuole membrane protein 1)	-0.24	inactive
58	VMP1 (vacuole membrane protein 1)	0	inactive
59	VMP1 (vacuole membrane protein 1)	-0.71	inactive
60	VMP1 (vacuole membrane protein 1)	-0.09	inactive
61	NDUFA12 (NADH:ubiquinone oxidoreductase subunit A12)	-0.62	inactive
62	NDUFA12 (NADH:ubiquinone oxidoreductase subunit A12)	-0.93	inactive
63	NDUFA12 (NADH:ubiquinone oxidoreductase subunit A12)	-0.68	inactive
64	NDUFA12 (NADH:ubiquinone oxidoreductase subunit A12)	0.16	inactive
65	CAPSL (calcyphosine like)	-0.13	inactive
66	CAPSL (calcyphosine like)	-1.3	inactive
67	CAPSL (calcyphosine like)	0.39	inactive
68	CAPSL (calcyphosine like)	1.39	inactive
69	ATP7A (ATPase copper transporting alpha)	-1.03	inactive
70	ATP7A (ATPase copper transporting alpha)	-0.6	inactive
71	ATP7A (ATPase copper transporting alpha)	0.22	inactive
72	ATP7A (ATPase copper transporting alpha)	-0.15	inactive
73	SUPT5H (SPT5 homolog, DSIF elongation factor subunit)	0.23	inactive
74	SUPT5H (SPT5 homolog, DSIF elongation factor subunit)	1.89	inactive
75	SUPT5H (SPT5 homolog, DSIF elongation factor subunit)	2.58	inactive
76	SUPT5H (SPT5 homolog, DSIF elongation factor subunit)	4.59	active
77	TXNRD1 (thioredoxin reductase 1)	-0.74	inactive
78	TXNRD1 (thioredoxin reductase 1)	-0.1	inactive
79	TXNRD1 (thioredoxin reductase 1)	-0.15	inactive
80	TXNRD1 (thioredoxin reductase 1)	-1.34	inactive
81	FUT7 (fucosyltransferase 7)	-0.04	inactive
82	FUT7 (fucosyltransferase 7)	0.64	inactive
83	FUT7 (fucosyltransferase 7)	-0.21	inactive
84	FUT7 (fucosyltransferase 7)	0.74	inactive
85	S100A7A (S100 calcium binding protein A7A)	-1.25	inactive
86	S100A7A (S100 calcium binding protein A7A)	-0.86	inactive
87	S100A7A (S100 calcium binding protein A7A)	-0.95	inactive
88	S100A7A (S100 calcium binding protein A7A)	-1.44	inactive
89	RGS1 (regulator of G protein signaling 1)	-1.18	inactive
90	RGS1 (regulator of G protein signaling 1)	-0.81	inactive
91	RGS1 (regulator of G protein signaling 1)	0.23	inactive
92	RGS1 (regulator of G protein signaling 1)	-0.49	inactive
93	CFAP161 (cilia and flagella associated protein 161)	-2.11	active
94	CFAP161 (cilia and flagella associated protein 161)	-1.59	active
95	CFAP161 (cilia and flagella associated protein 161)	-1.37	inactive
96	CFAP161 (cilia and flagella associated protein 161)	-1.27	inactive
97	SIX4 (SIX homeobox 4)	-0.78	inactive
98	SIX4 (SIX homeobox 4)	-0.4	inactive
99	SIX4 (SIX homeobox 4)	-0.35	inactive
100	SIX4 (SIX homeobox 4)	-0.07	inactive
101	KNOP1 (lysine rich nucleolar protein 1)	0.35	inactive
102	KNOP1 (lysine rich nucleolar protein 1)	0.29	inactive
103	KNOP1 (lysine rich nucleolar protein 1)	0.37	inactive
104	KNOP1 (lysine rich nucleolar protein 1)	-0.33	inactive
105	SERPINB11 (serpin family B member 11)	-0.33	inactive
106	SERPINB11 (serpin family B member 11)	0.39	inactive
107	SERPINB11 (serpin family B member 11)	0.99	inactive
108	SERPINB11 (serpin family B member 11)	0.65	inactive
109	GRPR (gastrin releasing peptide receptor)	-0.1	inactive
110	GRPR (gastrin releasing peptide receptor)	0.14	inactive
111	GRPR (gastrin releasing peptide receptor)	-0.22	inactive
112	GRPR (gastrin releasing peptide receptor)	0.04	inactive
113	SOX17 (SRY-box transcription factor 17)	-0.88	inactive
114	SOX17 (SRY-box transcription factor 17)	-1.03	inactive
115	SOX17 (SRY-box transcription factor 17)	-0.55	inactive
116	SOX17 (SRY-box transcription factor 17)	-0.8	inactive
117	H2BC18 (H2B clustered histone 18)	4.16	active
118	H2BC18 (H2B clustered histone 18)	2.56	inactive
119	H2BC18 (H2B clustered histone 18)	0.92	inactive
120	H2BC18 (H2B clustered histone 18)	3.56	active
121	LTBP1 (latent transforming growth factor beta binding protein 1)	-0.94	inactive
122	LTBP1 (latent transforming growth factor beta binding protein 1)	-0.03	inactive
123	LTBP1 (latent transforming growth factor beta binding protein 1)	-0.05	inactive
124	LTBP1 (latent transforming growth factor beta binding protein 1)	0.06	inactive
125	OSBPL7 (oxysterol binding protein like 7)	3.67	active
126	OSBPL7 (oxysterol binding protein like 7)	0.85	inactive
127	OSBPL7 (oxysterol binding protein like 7)	-0.38	inactive
128	OSBPL7 (oxysterol binding protein like 7)	0.57	inactive
129	CCR10 (C-C motif chemokine receptor 10)	0.5	inactive
130	CCR10 (C-C motif chemokine receptor 10)	0.48	inactive
131	CCR10 (C-C motif chemokine receptor 10)	0.44	inactive
132	CCR10 (C-C motif chemokine receptor 10)	1.24	inactive
133	CRELD2 (CRELD disulfide isomerase 2)	-0.06	inactive
134	CRELD2 (CRELD disulfide isomerase 2)	-0.41	inactive
135	CRELD2 (CRELD disulfide isomerase 2)	-0.56	inactive
136	CRELD2 (CRELD disulfide isomerase 2)	0.43	inactive
137	SRR (serine racemase)	0.26	inactive
138	SRR (serine racemase)	2.84	active
139	SRR (serine racemase)	1.39	inactive
140	SRR (serine racemase)	3.98	active

Ordered by “TNF reporter robust z-score” (high to low): 16 of the entries above
Target gene	TNF reporter robust z-score	Call
SERPINB11 (serpin family B member 11)	0.99	inactive
SERPINB11 (serpin family B member 11)	0.39	inactive
KNOP1 (lysine rich nucleolar protein 1)	0.37	inactive
KNOP1 (lysine rich nucleolar protein 1)	0.35	inactive
KNOP1 (lysine rich nucleolar protein 1)	0.29	inactive
SIX4 (SIX homeobox 4)	-0.07	inactive
KNOP1 (lysine rich nucleolar protein 1)	-0.33	inactive
SERPINB11 (serpin family B member 11)	-0.33	inactive
SIX4 (SIX homeobox 4)	-0.35	inactive
SIX4 (SIX homeobox 4)	-0.4	inactive
RGS1 (regulator of G protein signaling 1)	-0.49	inactive
SIX4 (SIX homeobox 4)	-0.78	inactive
CFAP161 (cilia and flagella associated protein 161)	-1.27	inactive
CFAP161 (cilia and flagella associated protein 161)	-1.37	inactive
CFAP161 (cilia and flagella associated protein 161)	-1.59	active
CFAP161 (cilia and flagella associated protein 161)	-2.11	active
